Assay results as given in paper PMC3412267.
No constants are given. Whether binding was seen depends on the method and setting. In cells and extracts the contact can be indirect. For part of these data: Binding calls can cover weak binding; strength is not graded here. Sequences can lack the tags named with a protein.

Key:
[1] = molecular target: T1, human GST-SCGN fusion protein (full-length Secretagogin) (human) (UniProt O76038); experiment: pull-down; GST-SCGN on Glutathione-Sepharose 4B beads incubated with rat brain lysate in TPBS with 1 mM PMSF, 4°C, 90 min, without EDTA; elution with 10 mM EDTA; immunoblot with pan-Tau antibody; only the target purified
T1 sequence: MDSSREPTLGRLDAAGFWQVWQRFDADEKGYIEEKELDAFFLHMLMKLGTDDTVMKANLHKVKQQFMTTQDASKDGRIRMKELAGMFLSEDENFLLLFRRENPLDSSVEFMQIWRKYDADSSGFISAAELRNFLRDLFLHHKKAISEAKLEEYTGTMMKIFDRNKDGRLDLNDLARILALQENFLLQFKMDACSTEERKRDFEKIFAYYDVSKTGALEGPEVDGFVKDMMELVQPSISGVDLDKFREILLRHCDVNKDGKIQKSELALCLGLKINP

[2] = molecular target: T1, human GST-SCGN fusion protein (full-length Secretagogin) (human); experiment: condition: only with EDTA (2.5, 5.0, 7.5 and 10.0 mM) in the lysate; pull-down; GST-SCGN on Glutathione-Sepharose 4B beads incubated with rat brain lysate in TPBS with 1 mM PMSF, 4°C, 90 min, with EDTA (2.5, 5.0, 7.5 or 10.0 mM) in the lysate; immunoblot with pan-Tau antibody; only the target purified
[3] = molecular target: T2, Secretagogin (rat), endogenous in rat brain (rat (endogenous in rat brain)) (UniProt Q6R556); experiment: co-IP; anti-Secretagogin antibody (D24 mAb) cross-linked to protein G magnetic beads, incubated with rat brain extract at 4°C for 2 h; washes with TPBS; elution with 100 mM glycine pH 2.0; immunoblot with anti-pan-Tau and anti-SCGN
T2 sequence: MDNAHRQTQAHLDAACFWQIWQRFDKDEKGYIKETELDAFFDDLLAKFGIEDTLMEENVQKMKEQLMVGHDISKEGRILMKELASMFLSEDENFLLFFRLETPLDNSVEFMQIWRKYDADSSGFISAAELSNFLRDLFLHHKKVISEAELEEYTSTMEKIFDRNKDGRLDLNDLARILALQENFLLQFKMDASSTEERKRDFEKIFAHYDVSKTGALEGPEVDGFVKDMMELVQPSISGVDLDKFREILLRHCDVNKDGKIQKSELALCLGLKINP

microtubule-associated protein Tau, endogenous in rat brain (from UniProt P19332-5)
binding [1]: binds | binding [2]: no binding | binding [3]: binds
